The full ranking holds about 1,000 compounds; the median of “thermal shift dTm” is about 0.19, and the highest 2% start at about 1.7. The list shows a part of the results. Calls of active or inactive are those of the source.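 Rule for the calls: active = mean rise in melting temperature of at least 1 degC over same-plate control wells; inactive = below that, where a call was filed.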

Amino acid sequences for entries named in this document (tags omitted). A change or cut given only in a name is not applied to a line headed by its entry.
UniProt O00391: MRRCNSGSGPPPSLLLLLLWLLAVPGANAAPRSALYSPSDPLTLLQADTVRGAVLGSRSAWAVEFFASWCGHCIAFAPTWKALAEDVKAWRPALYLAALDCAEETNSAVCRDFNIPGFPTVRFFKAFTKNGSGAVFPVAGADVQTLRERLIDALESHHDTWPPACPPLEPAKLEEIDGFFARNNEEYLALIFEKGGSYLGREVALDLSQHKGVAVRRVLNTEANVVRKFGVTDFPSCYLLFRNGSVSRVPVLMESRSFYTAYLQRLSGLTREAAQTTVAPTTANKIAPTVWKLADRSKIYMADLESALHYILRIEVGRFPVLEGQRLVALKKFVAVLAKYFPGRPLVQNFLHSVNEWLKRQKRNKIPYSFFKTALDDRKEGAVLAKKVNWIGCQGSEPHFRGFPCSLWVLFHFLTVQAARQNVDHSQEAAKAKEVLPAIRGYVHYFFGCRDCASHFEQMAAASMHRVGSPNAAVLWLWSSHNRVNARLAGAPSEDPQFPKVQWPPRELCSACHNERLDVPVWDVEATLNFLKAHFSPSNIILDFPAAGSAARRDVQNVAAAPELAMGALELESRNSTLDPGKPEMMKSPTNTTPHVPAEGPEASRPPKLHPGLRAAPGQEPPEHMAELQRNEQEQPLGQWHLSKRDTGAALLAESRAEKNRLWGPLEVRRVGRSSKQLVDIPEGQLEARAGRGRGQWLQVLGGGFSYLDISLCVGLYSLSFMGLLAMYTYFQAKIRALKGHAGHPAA

In the assay the target is Sulfhydryl oxidase 1 (Homo sapiens) (UniProt O00391). The assay is described as follows: ligand-induced melting shift of human QSOX1 – biophysical, protein thermal shift, single concentration, QSOX1 inhibitor project, confirmation (AID 1347422).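 Note: dTm is compound Tm minus mean Tm of DMSO-only wells on that plate.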 Conditions: recombinant hQSOX1 thermal shift, Sypro Orange, at 25 µM, stronger effect = higher value.
In the case of `O=C(CCc1ccccc1)n1nc(-c2ccco2)nc1NCc1cccs1`, the thermal shift dTm amounted to 0.05 °C.
With `COc1ccc(OC)c(NC(=O)c2ccc(C)c(S(=O)(=O)Nc3ccc(C)cc3)c2)c1`, the thermal shift dTm is 0.05 °C.
`CCOc1ccc(NC(=O)Nc2cc(C)ccc2OC)cc1`: the thermal shift dTm was 0.34 °C.
The figure for `COc1ccc(-c2noc(-c3ccccc3C(=O)Nc3ccc(NC(C)=O)cc3)n2)cc1` is 0.15 °C.
On to `Cc1cc(C(=O)Nc2ccncc2)sc1-c1ccccc1`, for which the thermal shift dTm is 0.04 °C.
The figure for `N#Cc1sc2nc(-c3ccc(F)cc3F)ccc2c1N` is 0.51 °C; for `CC1CCc2c(sc3ncn(CC(=O)Nc4ccccc4F)c(=O)c23)C1` (configuration not stated) it is 0.26 °C; for `COc1cc(-c2cccc(-c3ccn[nH]3)c2)ccc1NC(C)=O` it is 0.14 °C.
Turning to `COc1ccc(NC(=O)Nc2ccc3c(c2)CCC3)cc1OC`, the thermal shift dTm is 0.19 °C.
Turning to `COc1ccc(NC(=O)CSc2nncc(=O)[nH]2)cc1Cl`, the thermal shift dTm was 0.18 °C.
On to `Clc1ccc(CSCCc2nc(-c3ccccn3)no2)cc1Cl`, for which the thermal shift dTm was inactive: -0.08 °C.
Regarding `Cc1cc(C)c(C)c(S(=O)(=O)Nc2ccc(C(N)=O)cc2)c1C`, the thermal shift dTm stood at 0.1 °C.
In the case of `COc1ccc(-c2noc(CSc3nc(-c4ccccc4)cc(=O)[nH]3)n2)cc1OC` it was 0.11 °C; in that of `COc1ccc(C(=O)CCC(=O)Nc2ccc(Cl)c(Cl)c2)cc1OC`, 0.57 °C.
For `O=C(Nc1cccc(-c2noc(COc3ccccc3)n2)c1)c1ccco1`, the thermal shift dTm is 0.24 °C.
The figure for `COc1ccc(C(=O)NC(C)Cc2c[nH]c3ccccc23)cc1` (configuration not stated) is 0.47 °C; for `Cc1nnc(NC(=O)c2ccc(NC(=O)c3ccco3)cc2)s1` it is 0.7 °C; for `Cc1cc(C(=O)OCC(=O)Nc2ccc(Cl)cc2)c2ccccc2n1` it is inactive: -0.03 °C.
In the case of `CCOCCOc1cccc(NC(=O)Nc2ccccc2)c1` it was 0.23 °C.
The figure for `O=C(COc1ccccc1Cl)Nc1cccc(NC(=O)c2ccco2)c1` is 0.15 °C; for `COc1ccc(C(C)NC(=O)c2sc3ccccc3c2Cl)cc1OC` (configuration not stated) it is 0.15 °C; for `CC(C)(C)c1ccc(OCCNC(=O)c2cccc(Br)c2)cc1` it is 0.81 °C.
On to `O=C(Nc1cccc(Cl)c1)N1CCN(Cc2ccco2)CC1`, for which the thermal shift dTm is inactive: 0 °C.
In the case of `O=C(Nc1ccc(C(F)(F)F)cc1Cl)c1cc([N+](=O)[O-])[nH]n1` it was active: 1.73 °C; in that of `CSc1ccccc1NC(=O)Nc1cccc(F)c1`, 0.24 °C; in that of `Cc1cc(NC(=O)Cn2nc(/C=C/c3ccccc3)c3ccccc32)n(C)n1`, 0.18 °C.
Consider `Cc1ccc2nc(-c3ccc(N=Cc4ccc(O)cc4)cc3)sc2c1`, for which the thermal shift dTm was determined as 0.01 °C.
In the case of `Cc1onc(-c2cccs2)c1-c1nn2c(-c3ccco3)nnc2s1` it was active: 1.23 °C; in that of `COc1ccc(NC(=O)Nc2cccc3cccnc23)cc1`, 0.25 °C.
The figure for `COc1ccc(C(=O)N/C(=C/c2ccc(Br)cc2)c2nc3ccccc3[nH]2)cc1` is 0.1 °C; for `CCC(c1ccccc1)c1nnc(NC(=O)Nc2ccccc2F)s1` (configuration not stated) it is 0.2 °C.
As to `NC(=O)c1cc(Cc2ccccc2)sc1NC(=O)c1cccs1`, the thermal shift dTm is active: 1.07 °C.
In the case of `Ic1ccc(OCCCCOc2cccc3cccnc23)cc1`, the thermal shift dTm turned out to be 0.15 °C.
In the case of `O=C(Nc1ccc(-c2cnc(-c3ccc(NC(=O)C4CC4)cc3)nc2)cc1)C1CC1` it was 0.58 °C; in that of `CNC(=O)c1cc(S(=O)(=O)Nc2ccc(NC(=O)c3ccccc3)cc2)cs1`, 0.61 °C.
For the compound `CN(c1cccc(NC(=O)Nc2ccccc2)c1)S(C)(=O)=O`, the thermal shift dTm is 0.23 °C.
Regarding `Cc1nc(-c2cccnc2)sc1C(=O)Nc1cccc(Br)c1`, the thermal shift dTm was inactive: -0.88 °C.
In the case of `Cc1c(Cl)cccc1Nc1nc(-c2ccncc2)cs1` it was inactive: -0.03 °C; in that of `CCc1ccc(-c2cn3cc(C)sc3n2)cc1`, inactive: -0.08 °C; in that of `CCOc1ccc2nc(NC(=O)CCCCC(=O)O)sc2c1`, inactive: -0.04 °C.
On to `O=C(Nc1cccc(OCc2ccccc2)c1)c1ccco1`, for which the thermal shift dTm came to 0.23 °C.
The figure for `COc1cccc(C(=O)Nc2nc3ccc(Cl)cc3s2)c1` is 0.62 °C; for `Cc1ccc(NC(=O)Nc2ccc(Br)cc2)nc1` it is 0.28 °C; for `COc1ccc(-c2cnc3c(-c4ccc(OC)cc4)cnn3c2N)cc1` it is 0.06 °C.
Consider `CCN(CC)c1nc(C2=C[C+]=C([N+](=O)[O-])C=C2)nc2ccccc12`, for which the thermal shift dTm was found to be 0.02 °C.
The figure for `C(=C\c1nnc(-c2ccccc2)o1)/c1cc2ccccc2o1` is 0.18 °C; for `Cc1ccc(NC(=O)Cc2cccs2)nc1` it is 0.09 °C; for `COc1ccc(NC(=O)Nc2cccnc2)cc1` it is 0.28 °C.
`Cc1cnc(CNCc2ccccc2OCC(O)CN(C)C2CCCCC2)cn1` (configuration not stated): the thermal shift dTm stood at 0.14 °C.
For the compound `NC(=O)c1cccc(OCc2cccc(Br)c2)c1`, the thermal shift dTm came to 0.14 °C.
With `Cc1c(-c2cccc(Cl)c2)nc2ccccc2c1C(=O)NCCc1ccccc1`, the thermal shift dTm was 0.72 °C.
Regarding `NC(=O)c1ccc(NC(=O)Nc2cccc3ccccc23)cc1`, the thermal shift dTm was inactive: -1.99 °C.
The figure for `CCn1c(=O)c(C(=O)Nc2cccc(O)c2)c(O)c2ccccc21` is 0.15 °C; for `c1ccc(CNc2ncnc3scc(C4COc5ccccc5O4)c23)cc1` (configuration not stated) it is 0.77 °C; for `COc1ccc(-c2csc(Nc3ccc(Cl)cn3)n2)cc1` it is 0.16 °C.
`Cc1cc(NC(=O)c2ccccn2)ccc1NC(=O)c1cc2ccccc2o1`: the thermal shift dTm is 0.19 °C.
Consider `O=C(Nc1ccc2c(c1)OCO2)c1csc2ccccc12`, for which the thermal shift dTm came out at 0.65 °C.
Take `N#CC1=C(N)Oc2cc(N)ccc2C1c1ccc(-c2ccccc2)cc1` (configuration not stated): the thermal shift dTm stood at 0.25 °C.
In the case of `COc1ccc(C(=O)Nc2ccc(-n3nc(C)c4ccccc4c3=O)cc2)cc1OC` it was 0.15 °C; in that of `COc1ccc(-c2noc(-c3cccc(NC(C)=O)c3)n2)cc1`, 0.24 °C.
In the case of `O=C(Nc1ccc2c(c1)OCCO2)c1cccc(NC(=O)c2ccco2)c1` it was 0.09 °C; in that of `CCCn1c(NCc2ccc(Br)cc2)nc2ccccc21`, 0.49 °C.
The figure for `O=C(NC(=O)C(Cl)(Cl)Cl)Nc1ccc(Cl)c(Cl)c1` is 0.47 °C.
For `CCC(=O)Nc1ccc(NC(=O)COc2ccc(C)cc2C)cc1`, the thermal shift dTm was determined as 0.15 °C.
In the case of `CCOc1ccc(C(=O)Nc2cccc(-c3csc(C)n3)c2)cc1`, the thermal shift dTm was inactive: -0.65 °C.
In the case of `O=C(CCCN1C(=O)c2ccccc2C1=O)Oc1ccc(-c2ccccc2)cc1`, the thermal shift dTm was 0.21 °C.
In the case of `C=CCSC1=N/C(=C\c2cc3c(cc2Br)OCO3)C(=O)S1` it was 0.77 °C.
In the case of `CC(=O)Nc1ccc(NC(=O)Nc2ccccc2Cl)cc1`, the thermal shift dTm is 0.94 °C.
As for `CCc1ccccc1NC(=O)Nc1cccc(F)c1`, the thermal shift dTm worked out at 0.38 °C.
In the case of `CCS(=O)(=O)Nc1ccc(C(=O)Nc2cccc(SC)c2)cc1` it was 0.28 °C; in that of `COc1ccc(NC(=O)CSc2nnc(C)c(=O)[nH]2)cc1Cl`, 0.32 °C.
The figure for `C=CCc1c(C)nc2c(-c3ccccc3)cnn2c1NCc1ccccn1` is 0.11 °C.

The values are drawn from PubChem BioAssay AID1347422 (Sanford-Burnham Center for Chemical Genomics, 2020).
